Measurements reported in PMC5833458.
Results are given in words; binding and its absence hold for the method and conditions named. Binding seen in cells or lysates may run through a third protein. Here binding means that the protein was enriched with, or labelled near, the bait; the list need not be complete. Tags and fused reporters may be left off the sequences shown.

Target: T1, FLAG-tagged full-length (FL) Trim59 (mouse) (UniProt Q922Y2)
T1 sequence: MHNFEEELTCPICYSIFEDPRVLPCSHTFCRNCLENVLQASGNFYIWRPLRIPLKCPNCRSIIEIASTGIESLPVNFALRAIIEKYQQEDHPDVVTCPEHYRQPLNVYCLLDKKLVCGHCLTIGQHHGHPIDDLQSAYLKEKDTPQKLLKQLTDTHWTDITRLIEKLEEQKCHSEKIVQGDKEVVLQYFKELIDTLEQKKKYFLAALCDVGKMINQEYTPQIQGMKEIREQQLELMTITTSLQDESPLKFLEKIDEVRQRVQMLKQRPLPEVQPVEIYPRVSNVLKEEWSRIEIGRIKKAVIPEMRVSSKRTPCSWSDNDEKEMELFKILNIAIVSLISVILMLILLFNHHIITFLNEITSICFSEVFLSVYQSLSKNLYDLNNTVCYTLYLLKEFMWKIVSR
Test: affinity purification with mass spectrometry; HEK293T transfected with FLAG-Vector or FLAG-Trim59 for 24 h; immunoprecipitation with FLAG antibody, SDS-PAGE, silver stain, LC-MS/MS

binding: binds
Substance: myosin (human (endogenous in HEK293T))
